Source: patent US7030231 (University of California, dated 2006)
No constants are given. Whether binding was seen depends on the method and setting. Some entries that bind do so weakly or less than the wild type. Sequences can lack the tags named with a protein.

T1: His-tagged MT-SP1 protease domain (refolded, autoactivated, purified on p-aminobenzamidine resin) (human) (UniProt Q9Y5Y6)
T1 sequence 1: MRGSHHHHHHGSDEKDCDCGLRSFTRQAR
T1 sequence 2: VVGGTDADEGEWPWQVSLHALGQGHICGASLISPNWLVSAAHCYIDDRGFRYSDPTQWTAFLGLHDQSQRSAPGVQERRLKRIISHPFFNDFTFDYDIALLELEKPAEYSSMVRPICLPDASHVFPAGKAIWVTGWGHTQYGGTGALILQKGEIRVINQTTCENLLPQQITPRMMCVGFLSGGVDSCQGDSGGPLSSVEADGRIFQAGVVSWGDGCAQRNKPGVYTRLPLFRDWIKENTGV


Molecular target: T1, His-tagged MT-SP1 protease domain (refolded, autoactivated, purified on p-aminobenzamidine resin) (human)
Experiment: enzyme inhibition assay, Spectrozyme tPA

binding | Molecule
binds | ecotin (wild-type) (from UniProt P23827 21-162)
binds | ecotin M84R/M85R (other, E. coli (purified from E. coli), UniProt P23827 21-162, looked up, They probably count on mature ecotin, not on the precursor with its signal peptide) AESVQPLEKIAPYPQAEKGMKRQVIQLTPQEDESTLKVELLIGQTLEVDCNLHRLGGKLENKTLEGWGYDYYVFDKVSSPVSTRRACPDGKKEKKFVTAYLGDAGMLRYNSKLPIVVYTPDNVDVKYRVWKAEEKIDNAVVR
